PubChem BioAssay AID652243 – Drosophila RNAi Screening Center, 2013
The deposit covers about 24,000 reagents; below is a random part of those that have a named target and a result. Of all reagents, 246 (1%) were called active. 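Plates not normalised; calls are printed but the firefly/Renilla ratio behind them is not deposited; fold cut for lowering reported inconsistently.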 Raw values are not corrected between plates. The numbers tell different reagents against one gene apart. A plus sign joins genes that one reagent is predicted to hit. Not given: the amount of reagent.

Screen: 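Fly genes required for human androgen receptor driven transcription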 (primary screen)
Cells: Drosophila S2R+ cells
Reagents: long dsRNA against Drosophila genes
Time to read-out: 72 h (48 h, then 24 h hormone)
Challenge: synthetic androgen R1881 at 10 nM for 24 h
Detection: 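Per-well raw luminescence of the androgen-driven firefly reporter and of the Renilla control, two replicates each, without normalisation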
Scale: firefly reporter light: higher = more light from androgen-responsive reporter; Renilla control light: higher = more constitutive control signal (cell number, transfection)
Active means: 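Across duplicate plates, a knock-down whose log firefly/Renilla ratio shifted a set fold down or up from the GFP/LacZ control mean was a hit; the downward cut appears as both 1.5 and 3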
Meaning of the calls: active = hit: reporter lowered or raised; inactive = no hit

| firefly reporter light, replicate 1 | firefly reporter light, replicate 2 | Renilla control light, replicate 1 | Renilla control light, replicate 2 | activity call | gene | reagent |
| --- | --- | --- | --- | --- | --- | --- |
| 3.68e5 | 3.06e5 | 3.98e6 | 2.76e6 | inactive | MED18 (Mediator complex subunit 18) | 1 |
| 3.25e5 | 3.70e5 | 1.96e6 | 2.31e6 | inactive | kune (kune-kune) | 1 |
| 1.44e5 | 2.16e5 | 5.54e5 | 6.15e5 | inactive | ptc (patched) | 1 |
| 4.33e5 | 3.65e5 | 1.84e6 | 1.96e6 | inactive | ptc (patched) | 2 |
| 1.29e6 | 4.23e5 | 1.71e6 | 9.12e5 | inactive | Camta (Calmodulin-binding transcription activator) | 1 |
| 6.80e5 | 6.71e5 | 1.22e6 | 1.50e6 | inactive | Camta (Calmodulin-binding transcription activator) | 2 |
| 7.09e5 | 7.37e5 | 9.09e5 | 1.20e6 | inactive | Camta (Calmodulin-binding transcription activator) | 3 |
| 1.41e5 | 1.38e5 | 5.32e5 | 6.37e5 | inactive | Camta (Calmodulin-binding transcription activator) | 4 |
| 4.68e5 | 3.41e5 | 1.85e6 | 1.66e6 | inactive | Camta (Calmodulin-binding transcription activator) | 5 |
| 8.16e5 | 5.64e5 | 1.07e6 | 1.04e6 | inactive | Trs31 (TRAPP subunit 31) | 1 |
| 3.98e5 | 3.74e5 | 4.34e6 | 4.91e6 | inactive | CG15498 | 1 |
| 1.20e5 | 91312 | 2.17e6 | 2.08e6 | inactive | CG11999 | 1 |
| 6.55e5 | 6.21e5 | 3.66e6 | 3.43e6 | inactive | CG8958 | 1 |
| 5.00e5 | 5.07e5 | 1.04e6 | 1.04e6 | inactive | CG8958 | 2 |
| 3.91e5 | 3.51e5 | 2.33e6 | 2.06e6 | inactive | Gr5a (Gustatory receptor 5a) | 1 |
| 1.29e5 | 76754 | 3.48e6 | 1.65e6 | inactive | CG17715 | 1 |
| 2.63e5 | 1.54e5 | 2.24e6 | 1.68e6 | inactive | Ir75c (Ionotropic receptor 75c) | 1 |
| 2.45e5 | 1.26e5 | 1.16e6 | 5.69e5 | inactive | Pp4-19C (Protein phosphatase 19C) | 1 |
| 79126 | 80362 | 4.51e5 | 4.32e5 | active | Pp4-19C (Protein phosphatase 19C) | 2 |
| 5.30e5 | 5.43e5 | 2.72e5 | 2.72e5 | inactive | Pp4-19C (Protein phosphatase 19C) | 3 |
| 2.22e5 | 2.15e5 | 8.53e5 | 7.73e5 | inactive | Pp4-19C (Protein phosphatase 19C) | 4 |
| 3.46e5 | 2.50e5 | 1.95e6 | 1.45e6 | inactive | Cpr47Ed (Cuticular protein 47Ed) | 1 |
| 1.81e5 | 1.99e5 | 2.96e6 | 2.65e6 | inactive | TfIIFbeta (Transcription factor TFIIFbeta) | 1 |
| 6.97e5 | 1.05e6 | 1.40e6 | 2.05e6 | inactive | TfIIFbeta (Transcription factor TFIIFbeta) | 2 |
| 5.49e5 | 3.56e5 | 1.30e6 | 1.40e6 | inactive | TfIIFbeta (Transcription factor TFIIFbeta) | 3 |
| 1.01e5 | 1.30e5 | 2.25e6 | 2.14e6 | inactive | Cyp313b1 (Cytochrome P450 313b1) | 1 |
| 1.61e5 | 1.06e5 | 1.47e6 | 1.02e6 | inactive | Eaat1 (Excitatory amino acid transporter 1) | 1 |
| 2.47e5 | 3.38e5 | 1.99e6 | 2.79e6 | inactive | CG14075 | 1 |
| 1.50e5 | 2.04e5 | 2.30e5 | 3.06e5 | inactive | CG31268 | 1 |
| 2.46e5 | 1.14e5 | 2.80e6 | 2.54e6 | inactive | CG43318 | 1 |
| 5.23e5 | 5.68e5 | 3.63e6 | 3.14e6 | inactive | CG6481 | 1 |
| 3.41e5 | 2.73e5 | 3.39e6 | 3.39e6 | inactive | Erk7 (Extracellularly regulated kinase 7) | 1 |
| 3.62e5 | 5.56e5 | 2.30e6 | 2.57e6 | inactive | Erk7 (Extracellularly regulated kinase 7) | 2 |
| 1.11e6 | 1.02e6 | 1.57e6 | 1.40e6 | inactive | Erk7 (Extracellularly regulated kinase 7) | 3 |
| 2.75e5 | 3.43e5 | 2.12e6 | 2.12e6 | inactive | PHDP (Putative homeodomain protein) | 1 |

Sorted by “firefly reporter light, replicate 2” (low to high): 7 of the entries above
| firefly reporter light, replicate 1 | firefly reporter light, replicate 2 | Renilla control light, replicate 1 | Renilla control light, replicate 2 | activity call | gene | reagent |
| --- | --- | --- | --- | --- | --- | --- |
| 1.29e5 | 76754 | 3.48e6 | 1.65e6 | inactive | CG17715 | 1 |
| 79126 | 80362 | 4.51e5 | 4.32e5 | active | Pp4-19C (Protein phosphatase 19C) | 2 |
| 2.45e5 | 1.26e5 | 1.16e6 | 5.69e5 | inactive | Pp4-19C (Protein phosphatase 19C) | 1 |
| 2.63e5 | 1.54e5 | 2.24e6 | 1.68e6 | inactive | Ir75c (Ionotropic receptor 75c) | 1 |
| 3.91e5 | 3.51e5 | 2.33e6 | 2.06e6 | inactive | Gr5a (Gustatory receptor 5a) | 1 |
| 5.00e5 | 5.07e5 | 1.04e6 | 1.04e6 | inactive | CG8958 | 2 |
| 5.30e5 | 5.43e5 | 2.72e5 | 2.72e5 | inactive | Pp4-19C (Protein phosphatase 19C) | 3 |

Further records:
| firefly reporter light, replicate 1 | firefly reporter light, replicate 2 | Renilla control light, replicate 1 | Renilla control light, replicate 2 | activity call | gene | reagent |
| --- | --- | --- | --- | --- | --- | --- |
| 2.38e5 | 2.90e5 | 2.54e6 | 2.25e6 | inactive | TwdlP (TweedleP) | 1 |
| 5.36e5 | 8.82e5 | 1.31e6 | 1.80e6 | inactive | Lip3 (Lipase 3) | 1 |
| 5.07e5 | 5.13e5 | 1.39e6 | 1.39e6 | inactive | Lip3 (Lipase 3) | 2 |
| 6.61e5 | 5.91e5 | 2.16e6 | 2.06e6 | inactive | Fum4 (Fumarase 4) | 1 |
| 5.95e5 | 6.61e5 | 9.18e5 | 1.00e6 | inactive | Fum4 (Fumarase 4) | 2 |
| 3.49e5 | 4.62e5 | 2.58e6 | 2.55e6 | inactive | CG15760 | 1 |
| 5.19e5 | 4.29e5 | 1.11e6 | 1.19e6 | inactive | CG15760 | 2 |
| 1.64e5 | 1.76e5 | 1.11e6 | 8.05e5 | inactive | Arc1 (Activity-regulated cytoskeleton associated protein 1) | 1 |
| 3.07e5 | 2.41e5 | 1.07e6 | 9.30e5 | inactive | Arc1 (Activity-regulated cytoskeleton associated protein 1) | 2 |
| 7.59e5 | 6.24e5 | 3.30e6 | 2.63e6 | inactive | Mst36Fa (Male-specific transcript 36Fa) | 1 |
| 5.80e5 | 4.99e5 | 6.90e5 | 7.78e5 | inactive | Mst36Fa (Male-specific transcript 36Fa) | 2 |
| 1.38e5 | 1.45e5 | 2.16e6 | 2.32e6 | inactive | Polr3K + Tcs1 | 1 |
| 4.61e5 | 2.67e5 | 4.44e5 | 5.49e5 | inactive | Polr3K + Tcs1 | 2 |
| 3.82e5 | 3.20e5 | 3.68e6 | 3.45e6 | inactive | CG42749 | 1 |
| 2.27e5 | 3.84e5 | 2.32e6 | 2.25e6 | inactive | CG42749 | 2 |
| 7.04e5 | 6.79e5 | 1.45e6 | 1.41e6 | inactive | CG42749 | 3 |
| 2.96e5 | 2.25e5 | 1.94e6 | 2.05e6 | inactive | CG13544 | 1 |
| 4.91e5 | 4.24e5 | 1.16e6 | 1.04e6 | inactive | CG13544 | 2 |
| 1.85e5 | 2.28e5 | 2.44e6 | 2.87e6 | inactive | dar1 (dendritic arbor reduction 1) | 1 |
| 1.05e5 | 82748 | 8.09e5 | 7.92e5 | inactive | Atpalpha (Na pump alpha subunit) | 1 |
| 8.58e5 | 7.23e5 | 1.97e6 | 1.54e6 | inactive | Atpalpha (Na pump alpha subunit) | 2 |
| 1.06e5 | 1.37e5 | 3.95e5 | 3.98e5 | inactive | CG32259 | 1 |
| 1.60e5 | 2.01e5 | 4.14e5 | 4.87e5 | inactive | Kah (Kahuli) | 1 |
| 1.44e5 | 1.22e5 | 2.73e6 | 2.34e6 | inactive | Kah (Kahuli) | 2 |
| 1.03e6 | 6.93e5 | 5.42e5 | 6.05e5 | inactive | Kah (Kahuli) | 3 |
